# In the supplement of paper PMC8728848:
# The other results are listed elsewhere or left out.
# Columns and labels:
# Test in all cases: glycan array binding signal (z-score within array); higher = stronger binding
# Conditions in all cases: glycan notation: IUPAC condensed, linker removed; mutation: R201A
# GlcNAc(b1-3)GalNAc = biological target: GlcNAc(b1-3)GalNAc
# Method in brief: (§1)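 Glycan array data were curated from 3228 arrays in the Consortium for Functional Glycomics database and kept only where the protein sequence was available. Glycan names were converted to IUPAC-condensed notation, and columns mapping to the same glycan were averaged. The binding signal is a within-array Z-score, averaged across arrays of the same protein sequence at different concentrations or buffers and across linkers. Negative Z-scores can be read as non-binding.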
# GlcNAc(b1-3)Man = biological target: GlcNAc(b1-3)Man
# Method in brief: as §1
# [1] = biological target: GlcNAc(b1-3)[GlcNAc(b1-4)][GlcNAc(b1-6)]GlcNAc
# Method in brief: as §1
# [2] = biological target: GlcNAc(b1-3)[GlcNAc(b1-6)]Gal(b1-4)GlcNAc
# Method in brief: as §1
# [3] = biological target: GlcNAc(b1-3)[GlcNAc(b1-6)]GalNAc
# Method in brief: as §1
# [4] = biological target: GlcNAc(b1-4)Gal(b1-4)GlcNAc
# Method in brief: as §1
# GlcNAc(b1-4)GlcNAc = biological target: GlcNAc(b1-4)GlcNAc
# Method in brief: as §1
# [5] = biological target: GlcNAc(b1-4)GlcNAc(b1-4)GlcNAc
# Method in brief: as §1
# [6] = biological target: GlcNAc(b1-4)GlcNAc(b1-4)GlcNAc(b1-4)GlcNAc(b1-4)GlcNAc
# Method in brief: as §1
# [7] = biological target: GlcNAc(b1-4)GlcNAc(b1-4)GlcNAc(b1-4)GlcNAc(b1-4)GlcNAc(b1-4)GlcNAc
# Method in brief: as §1
# [8] = biological target: GlcNAc(b1-4)[GlcNAc(b1-6)]GalNAc
# Method in brief: as §1
# [9] = biological target: GlcNAc(b1-6)Gal(b1-4)GlcNAc
# Method in brief: as §1
# GlcNAc(b1-6)GalNAc = biological target: GlcNAc(b1-6)GalNAc
# Method in brief: as §1
# [10] = biological target: GlcNAc6S(b1-3)Gal(b1-4)GlcNAc
# Method in brief: as §1
# Kdn(a2-3)Gal(b1-3)GalNAc = biological target: Kdn(a2-3)Gal(b1-3)GalNAc
# Method in brief: as §1
# Kdn(a2-3)Gal(b1-3)GlcNAc = biological target: Kdn(a2-3)Gal(b1-3)GlcNAc
# Method in brief: as §1
# Kdn(a2-3)Gal(b1-4)Glc = biological target: Kdn(a2-3)Gal(b1-4)Glc
# Method in brief: as §1
# Kdn(a2-3)Gal(b1-4)GlcNAc = biological target: Kdn(a2-3)Gal(b1-4)GlcNAc
# Method in brief: as §1
# [11] = biological target: Kdn(a2-3)Gal(b1-4)[Fuc(a1-3)]GlcNAc
# Method in brief: as §1
# Kdn(a2-6)Gal(b1-4)GlcNAc = biological target: Kdn(a2-6)Gal(b1-4)GlcNAc
# Method in brief: as §1
# [12] = biological target: Man(a1-2)Man(a1-2)Man(a1-3)Man
# Method in brief: as §1
# [13] = biological target: Man(a1-2)Man(a1-2)Man(a1-6)[Man(a1-3)]Man
# Method in brief: as §1
# Man(a1-2)Man(a1-3)Man = biological target: Man(a1-2)Man(a1-3)Man
# Method in brief: as §1
# [14] = biological target: Man(a1-2)Man(a1-3)[Man(a1-2)Man(a1-6)]Man
# Method in brief: as §1
# [15] = biological target: Man(a1-2)Man(a1-3)[Man(a1-2)Man(a1-6)]Man(a1-6)[Man(a1-2)Man(a1-2)Man(a1-3)]Man
# Method in brief: as §1
# [16] = biological target: Man(a1-2)Man(a1-3)[Man(a1-2)Man(a1-6)]Man(a1-6)[Man(a1-2)Man(a1-2)Man(a1-3)]Man(b1-4)GlcNAc(b1-4)GlcNAc
# Method in brief: as §1
# [17] = biological target: Man(a1-2)Man(a1-3)[Man(a1-6)]Man(a1-6)[Man(a1-2)Man(a1-3)]Man(b1-4)GlcNAc(b1-4)GlcNAc
# Method in brief: as §1
# [18] = biological target: Man(a1-2)Man(a1-6)[Man(a1-3)]Man(a1-6)[Man(a1-2)Man(a1-2)Man(a1-3)]Man
# Method in brief: as §1
# [19] = biological target: Man(a1-2)Man(a1-6)[Man(a1-3)]Man(a1-6)[Man(a1-2)Man(a1-2)Man(a1-3)]Man(b1-4)GlcNAc(b1-4)GlcNAc
# Method in brief: as §1
# Man(a1-3)[Man(a1-6)]Man = biological target: Man(a1-3)[Man(a1-6)]Man
# Method in brief: as §1
# [20] = biological target: Man(a1-3)[Man(a1-6)]Man(a1-6)[Man(a1-2)Man(a1-3)]Man(b1-4)GlcNAc(b1-4)GlcNAc
# Method in brief: as §1
# [21] = biological target: Man(a1-3)[Man(a1-6)]Man(a1-6)[Man(a1-3)]Man
# Method in brief: as §1
# [22] = biological target: Man(a1-3)[Man(a1-6)]Man(a1-6)[Man(a1-3)]Man(b1-4)GlcNAc(b1-4)GlcNAc
# Method in brief: as §1
# [23] = biological target: Man(a1-3)[Man(a1-6)]Man(b1-4)GlcNAc(b1-4)GlcNAc
# Method in brief: as §1
# [24] = biological target: Man(a1-3)[Man(a1-6)]Man(b1-4)GlcNAc(b1-4)[Fuc(a1-6)]GlcNAc
# Method in brief: as §1
# Man(a1-6)Man = biological target: Man(a1-6)Man
# Method in brief: as §1
# Man(b1-4)GlcNAc = biological target: Man(b1-4)GlcNAc
# Method in brief: as §1
# MurNAc(b1-4)GlcNAc = biological target: MurNAc(b1-4)GlcNAc
# Method in brief: as §1
binder,measurement,setting,value
OS9 (Arabidopsis thaliana) (protein) MRGSHHHHHHGMASMTGGQQMGRDLYDDDDKSRLQIFPAHLVGTFSRNNREPKYKIEFLPEDSPFHPGDNLESMVMLDKHGNRFLCYLPKEEKATSGWTSSQQNISTVMMETQQLVKLKTPDELLQPLSEKCLFRQEGWWSYEFCHQKYVRQLHVEDENKIVQEFFLGTFDPEATAAFNQTVSDASTDASQRYHSHVYTNGTTCDLTGSPAEVEVRFVCAETRAMVTSITELSTCKYALTVQCPTLCKHPLFQLEKPVSHTIHCNAIPVEEDATRNKEEQAVDESPKMIADS,glycan array binding signal (z-score),GlcNAc(b1-3)GalNAc,-0.197
same,glycan array binding signal (z-score),GlcNAc(b1-3)Man,-0.811
same,glycan array binding signal (z-score),[1],-1.31
same,glycan array binding signal (z-score),[2],-0.217
same,glycan array binding signal (z-score),[3],0.649
same,glycan array binding signal (z-score),[4],0.805
same,glycan array binding signal (z-score),GlcNAc(b1-4)GlcNAc,8.22
same,glycan array binding signal (z-score),[5],0.6
same,glycan array binding signal (z-score),[6],1.16
same,glycan array binding signal (z-score),[7],0.152
same,glycan array binding signal (z-score),[8],-0.045
same,glycan array binding signal (z-score),[9],0.172
same,glycan array binding signal (z-score),GlcNAc(b1-6)GalNAc,-0.498
same,glycan array binding signal (z-score),[10],-0.224
same,glycan array binding signal (z-score),Kdn(a2-3)Gal(b1-3)GalNAc,0.105
same,glycan array binding signal (z-score),Kdn(a2-3)Gal(b1-3)GlcNAc,-0.515
same,glycan array binding signal (z-score),Kdn(a2-3)Gal(b1-4)Glc,-0.85
same,glycan array binding signal (z-score),Kdn(a2-3)Gal(b1-4)GlcNAc,0.191
same,glycan array binding signal (z-score),[11],0.82
same,glycan array binding signal (z-score),Kdn(a2-6)Gal(b1-4)GlcNAc,-0.068
same,glycan array binding signal (z-score),[12],0.875
same,glycan array binding signal (z-score),[13],0.361
same,glycan array binding signal (z-score),Man(a1-2)Man(a1-3)Man,0.874
same,glycan array binding signal (z-score),[14],-0.568
same,glycan array binding signal (z-score),[15],0.167
same,glycan array binding signal (z-score),[16],0.316
same,glycan array binding signal (z-score),[17],-0.138
same,glycan array binding signal (z-score),[18],0.212
same,glycan array binding signal (z-score),[19],-0.12
same,glycan array binding signal (z-score),Man(a1-3)[Man(a1-6)]Man,-0.58
same,glycan array binding signal (z-score),[20],0.185
same,glycan array binding signal (z-score),[21],-0.072
same,glycan array binding signal (z-score),[22],1.03
same,glycan array binding signal (z-score),[23],-0.762
same,glycan array binding signal (z-score),[24],0.428
same,glycan array binding signal (z-score),Man(a1-6)Man,-0.709
same,glycan array binding signal (z-score),Man(b1-4)GlcNAc,-0.888
same,glycan array binding signal (z-score),MurNAc(b1-4)GlcNAc,0.569

# Reprinted from the entries so far (2 entries):
binder,measurement,setting,value
OS9 (Arabidopsis thaliana) (protein) MRGSHHHHHHGMASMTGGQQMGRDLYDDDDKSRLQIFPAHLVGTFSRNNREPKYKIEFLPEDSPFHPGDNLESMVMLDKHGNRFLCYLPKEEKATSGWTSSQQNISTVMMETQQLVKLKTPDELLQPLSEKCLFRQEGWWSYEFCHQKYVRQLHVEDENKIVQEFFLGTFDPEATAAFNQTVSDASTDASQRYHSHVYTNGTTCDLTGSPAEVEVRFVCAETRAMVTSITELSTCKYALTVQCPTLCKHPLFQLEKPVSHTIHCNAIPVEEDATRNKEEQAVDESPKMIADS,glycan array binding signal (z-score),[21],-0.072
same,glycan array binding signal (z-score),[22],1.03
